In test [1] the test system is SK-N-SH neuroblastoma cell line. Put plainly: Cellular morphology (Form Factor) of neuroblastoma cells. It counts as cell-based, human. Conditions: p<0.003. How it is done:
Cell viability was determined via Trypan blue exclusion. An inverted light microscope (Nikon) with a phase-contrast filter was used to observe the cells. Pictures of the cells were taken via a digital camera (Optronix) attached to the microscope ocular. Images were uploaded onto ImagePro Plus Software (Applied Biosystems), where cell viability was calculated based on both the number of cells covering the field and the cells that present as dead from the stain. In addition, ImagePro Plus was used for determining cellular morphology. The area and perimeter were found and used in the formula (4π*Area)/(Perimeter)^2, resulting in a value between 0 (a straight line) and 1 (a perfect circle).

We go through 1 molecule from patent US9474749B2 (priority 2004, dated 2016).

Like-named read-outs stand apart in the source and are kept apart here.

In the case of `CN1CC[C@]23c4c5ccc(O)c4O[C@H]2[C@@H](O)C=C[C@H]3[C@H]1C5` [Morphine, morphine], in test [1], the “Form Factor, effect against rotenone toxicity” value is reported as “produced a neuroprotective effect”. Moreover, the figures for the “NO release capacity” value with SH-SY5Y cells (high dose 10^−6 M) and in the test with SH-SY5Y cells (low dose 10^−8 M) were “lost their initial levels of NO release” and “remained capable of releasing NO”, respectively.
